Data on one compound can be found in ChEMBL document CHEMBL4321828, “Recent developments on (-)-colchicine derivatives: Synthesis and structure-activity relationship” (Eur J Med Chem, 2020).

This test deals with COLO 205. The test can be described thus: Antiproliferative activity against human COLO205 cells assessed as reduction in cell viability incubated for 48 hrs by MTT assay. The format is functional, cell-based. The settings on record: COLO 205, 48 h. (Tetrazolium dyes change colour on reduction, which living cells bring about.)

The structures appear in SMILES notation. pIC50: −log10 of the molar value.

The pIC50 is −log10 of the IC50, conventionally taken in molar units. Turning to `COc1cc2c(c(OC)c1OC)-c1ccc(OC)c(=O)cc1[C@@H](NC(C)=O)CC2` [COLCHICINE], the pIC50 was 7.49.
